Measured values: the supplement of paper PMC3334620
Whole data set: some 33,000 sequences, median “E-score (-0.5 to 0.5)” near -0.0059, cut for the highest 2% near 0.26. The list shows a part of the results.

molecular target: T1, Cin5 (UniProt P40917); assay: PBM E-score (8-mer binding enrichment) (E-score (-0.5 to 0.5)); higher = stronger / more preferred TF binding; details: protein concentration: 100 nM; construct: GST-full length
T1 sequence: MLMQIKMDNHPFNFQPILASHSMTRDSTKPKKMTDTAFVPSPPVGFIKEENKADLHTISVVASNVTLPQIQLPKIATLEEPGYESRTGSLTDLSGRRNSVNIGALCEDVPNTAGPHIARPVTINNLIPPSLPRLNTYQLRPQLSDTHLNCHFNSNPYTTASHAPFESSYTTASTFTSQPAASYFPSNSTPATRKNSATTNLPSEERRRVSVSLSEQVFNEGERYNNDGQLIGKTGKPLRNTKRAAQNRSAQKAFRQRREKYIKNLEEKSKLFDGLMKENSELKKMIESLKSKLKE
How it was run: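 Detection of bound protein used fluorescent anti-GST, with scans normalised by masliner. The proteins were GST-tagged yeast transcription factors applied at about 100-200 nM to universal all-10-mer Agilent arrays made double-stranded by primer extension. Each ungapped eight-base word, pooled with its reverse complement, was scored with an E-score from the Universal PBM Analysis Suite.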

Row | Sequence | PBM E-score
1 | TATGCAAA | 0.0291
2 | AAATGCTA | 0.124
3 | AACGGGCA | -0.109
4 | AGAATATA | 0.105
5 | AATGCATC | 0.148
6 | AAAAAGCT | -0.179
7 | CTCACTAC | 0.0475
8 | AATTAGAG | 0.146
9 | CCTCGTCA | 0.00446
10 | ACTCAGTG | -0.154
11 | CCCTGTAA | 0.0657
12 | CTAGTTGA | 0.211
13 | CAGCTTGA | 0.0482
14 | AGTCTAAG | 0.157
15 | GCAGTTCC | -0.0186
16 | AGTACATA | 0.155
17 | ATTCTCAA | 0.184
18 | AGGTTAAA | 0.0293
19 | ACACAGAC | 0.0456
20 | CGAGGGCG | -0.182
21 | ATATATGG | 0.24
22 | ACCATATC | 0.196

Row | Sequence | PBM E-score
23 | CGTAATCC | 0.383
24 | GAGAGACA | -0.0721
25 | ACTGTACC | -0.0653
26 | AGCCGCAG | -0.188
27 | GTCTGCAA | -0.163
28 | ATTGTCAG | 0.104
29 | AGCGACCC | -0.221
30 | AGGGGATC | 0.069
31 | AGATAAGG | -0.0472
32 | ACAAGCCT | -0.147
33 | AGGTATAT | 0.193
34 | TAGTGACA | 0.168
35 | GGTAGCTA | -0.238
36 | CTAAGGTA | 0.131
37 | ACTTGTCC | 0.0975
38 | ATTAGCGA | 0.108
39 | ATTACATC | 0.31
40 | CACTGGCA | -0.0699
41 | CGGAGGCC | -0.278
42 | CTATTGAA | 0.0131
43 | TCATACAA | 0.203
44 | CCAGCTCG | -0.101

Row | Sequence | PBM E-score
45 | ATATTCTG | 0.126
46 | CTTACGCA | 0.107
47 | AATACGTC | 0.181
48 | AAGCATTC | 0.189
49 | ATTCCGAG | 0.182
50 | CGGGGACC | -0.107
51 | TTAAGTAA | 0.423
52 | CTAAGGAC | -0.149
53 | GACAAAAC | 0.172
54 | ATTTATGC | 0.121
55 | AATCGTCT | 0.0498
56 | AGACTACA | -0.00466
57 | CAGGTTCG | -0.0082
58 | ACGCTTAG | 0.0472
59 | AGGCGTCA | -0.199
60 | AGTGTATG | 0.0437
61 | AGTGCCAG | -0.217
62 | ACGTAGTA | 0.037
63 | ACGGGCGA | -0.125
64 | ACTGATGG | -0.0587
65 | ACAGGTGC | -0.138
66 | CACGAAGA | 0.132

Fetched one by one from the list above (five):
Row | Sequence | PBM E-score
54 | ATTTATGC | 0.121
47 | AATACGTC | 0.181
65 | ACAGGTGC | -0.138
58 | ACGCTTAG | 0.0472
48 | AAGCATTC | 0.189

(continued)

Row | Sequence | PBM E-score
67 | ATGTCATC | 0.142
68 | CAACAGCC | 0.0168
69 | CCGGTACA | -0.00292
70 | AGCCTACA | -0.13
71 | ACCGTGAA | -0.102
72 | AGGGCATG | -0.231
73 | GGGCCTGA | -0.351
74 | CACTCGCC | 0.0335
75 | GGGGCGCA | -0.162
76 | ACACGCTC | -0.00365
77 | CAGACTCG | -0.177
78 | ACATTGAA | 0.0676
79 | ATCTAGCC | -0.0446
80 | ACCTCAGC | 0.0198
81 | CCGCACCG | -0.0359
82 | ATTAGCTC | 0.0538
83 | ATAACCTA | 0.111
84 | CTTGCCGA | -0.106
85 | AATATGAG | 0.0321
86 | ATCTTCAA | 0.141
